# Assay results published in patent US8815940B2, “Coumarin-chalcones as anticancer agents” (Council of Scientific & Industrial Research, priority 2010, dated 2014).
# pIC50: −log10 of the molar value.
# System: MCF-7 (breast adenocarcinoma)
# Test: sulforhodamine B cell cytotoxicity assay, MCF-7
# Type: cell-based
# Conditions: Homo sapiens, MCF7; Table 2; SRB assay, 48 h of exposure
# Protocol: The human cancer cell lines—KB (oral squamous cell carcinoma). C33A (cervical carcinoma), MCF-7 (breast adenocarcinoma), A549 (lung carcinoma) and mouse embryo fibroblast (NIH3T3) were obtained from American Type Culture Collection (ATCC), USA. These cells were grown in recommended media supplemented with 10% FBS, 50 μg/mL gentamycin and 2.5 μg/mL amphotericin B in a 5% CO2 humidified atmosphere at 37° C. Cells below 15 passage level were used for this study. A colorimetric sulforhodamine B assay was used for the measurement of cell cytotoxicity. 1×10^4 cells (in 180 μL) were added to each well of 96-well plate and incubated overnight to allow for cell attachment. Cells were then treated with serial two-fold dilutions of test compounds (100 to 1.6 μM) and untreated cells receiving the same volume of medium served as control. After 48 h of exposure, cells were fixed with ice-cold 50% TCA, stained with 0.4% (w/v) SRB in 1% acetic acid, washed and air dried. Bound dye was dissolved in 150 μL of 10 mM tris base. The plates were read at 540 nm absorbance on plate reader (Polarstar Galaxy, BMG, Germany). The cytotoxic effects of compounds were calculated as % inhibition in cell growth as per the formula […]. Determination of 50% inhibitory concentration (IC50) was based on dose-response curves.
structure (smiles),measurement,value
"CC/C(=C(\c1ccccc1)c1ccc(OCCN(C)C)cc1)c1ccccc1 [Tamoxifen, reference compound]",pIC50,4.93
